PubChem BioAssay AID504808, Drosophila RNAi Screening Center – 2011
The screen tested about 21,000 reagents; shown is a random part of those that have a named target and a result. Over the whole deposit, 18 (0.084%) are marked active. 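Raw counts without plate normalisation, one of two replicates; the ratio scores behind the calls were not deposited.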 Reagents against one gene are numbered here. Not given: the amount of reagent, the time to read-out.

Test: 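Genes whose loss lifts activity of an E2F-responsive reporter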 (primary screen)
Cell system: Drosophila S2 cells
Reagent: long dsRNA against Drosophila genes
Read-out: 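Firefly luciferase driven by E2F sites, normalised to Renilla luciferase on the same minimal promoter, measured by plate reader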
Direction: E2F firefly: higher = more E2F reporter activity; Renilla normaliser: higher = more normaliser reporter signal
Hit rule: 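Called active if the normalised E2F reporter went up by over 50%; the cutoff is arbitrary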

gene | reagent | E2F firefly, rep 1 | Renilla normaliser, rep 1 | Call
CG1236 | 1 | 72245 | 3533 | inactive
CG10700 | 1 | 96511 | 4365 | inactive
CG2004 | 1 | 61353 | 4127 | inactive
CG34297 | 1 | 72435 | 3578 | inactive
CG32638 | 1 | 91545 | 2882 | inactive
CG4866 | 1 | 1.37e5 | 4988 | inactive
PpY-55A (Protein phosphatase Y at 55A) | 1 | 1.35e5 | 4699 | inactive
Sema2a (Semaphorin 2a) | 1 | 74622 | 4204 | inactive
CG32582 (retired record) | 1 | 83140 | 2850 | inactive
CG4911 | 1 | 68387 | 3341 | inactive
CG14989 | 1 | 79613 | 3672 | inactive
CG14410 | 1 | 1.08e5 | 5277 | inactive
CG18518 | 1 | 1.26e5 | 6427 | inactive
CG31178 | 1 | 1.54e5 | 7064 | inactive
RpS14a (Ribosomal protein S14a) | 1 | 53986 | 5375 | inactive
E(spl)mbeta-HLH (Enhancer of split mbeta, helix-loop-helix) | 1 | 1904 | 980 | inactive
CG6972 | 1 | 98790 | 6331 | inactive
CG10927 | 1 | 67532 | 3065 | inactive
CG13426 | 1 | 1.50e5 | 4694 | inactive
mal (maroon-like) | 1 | 1.51e5 | 4903 | inactive
CG12661 | 1 | 97294 | 4499 | inactive
Rpe (Ribulose-5-phosphate-3-epimerase) | 1 | 3036 | 177 | inactive
trbd (trabid) | 1 | 58412 | 3597 | inactive
Rsod (Related to Sod) | 1 | 1.14e5 | 6959 | inactive
Gk1 (Glycerol kinase 1) | 1 | 78242 | 3427 | inactive
Gk1 (Glycerol kinase 1) | 2 | 1.05e5 | 4513 | inactive
RhoGAPp190 (Rho GTPase activating protein p190) | 1 | 1.57e5 | 5563 | inactive
RhoGAPp190 (Rho GTPase activating protein p190) | 2 | 1.44e5 | 5881 | inactive
Atg7 (Autophagy-related 7) | 1 | 1.64e5 | 7286 | inactive
Atg7 (Autophagy-related 7) | 2 | 1.53e5 | 4691 | inactive
CG2747 | 1 | 1.38e5 | 6560 | inactive
CG42365 | 1 | 98476 | 4144 | inactive
side-VIII (sidestep VIII) | 1 | 1.29e5 | 5163 | inactive
side-VIII (sidestep VIII) | 2 | 1.15e5 | 4318 | inactive
side-VIII (sidestep VIII) | 3 | 1.56e5 | 4990 | inactive
NimB4 (Nimrod B4) | 1 | 89292 | 4164 | inactive
hmw (hemingway) | 1 | 71363 | 3159 | inactive
CG9300 | 1 | 72631 | 3173 | inactive
ndl (nudel) | 1 | 88180 | 3614 | inactive
TRAM | 1 | 62758 | 4155 | inactive
TRAM | 2 | 1.21e5 | 5363 | inactive
CG15653 | 1 | 1.02e5 | 3555 | inactive
CG15812 | 1 | 94096 | 3698 | inactive
Dpm1 (Dolichyl-phosphate mannosyltransferase subunit 1) | 1 | 95499 | 4219 | inactive
Sec63 (Secretory 63) | 1 | 1.00e5 | 4114 | inactive
inv (invected) | 1 | 92957 | 4302 | inactive
CG15247 | 1 | 1.24e5 | 5458 | inactive
Atg4a (Autophagy-related 4a) | 1 | 88203 | 3471 | inactive
TwdlC (TweedleC) | 1 | 1.12e5 | 5996 | inactive
CG42749 | 1 | 44802 | 3334 | inactive
CG42749 | 2 | 34848 | 3172 | inactive
beat-VI (beaten path VI) | 1 | 1.18e5 | 6151 | inactive
beat-VI (beaten path VI) | 2 | 1.19e5 | 6014 | inactive
CG32050 (retired record) | 1 | 1.24e5 | 6452 | inactive
CG10949 | 1 | 70952 | 3297 | inactive
PGS1 (Phosphatidylglycerophosphate synthase 1) | 1 | 1.58e5 | 7372 | inactive
CG31926 | 1 | 1.69e5 | 5484 | inactive
